This data set in a line: general procedure: Fmoc solid-phase peptide synthesis; 2-chlorotrityl chloride resin. To be noted: conjugation step.

For the substance Rhodamine-GFFYE-CS-EE, the conjugation yield is given as 80% yield.

(Values after paper PMC4647837 (Scientific Reports, 2015).)
